Holding throughout (test): co-IP; HEK293T cells transfected with Flag- and HA-tagged plasmids; NP-40 lysis buffer, Protein G Sepharose and the indicated antibody or control IgG, 3 hours; immunoblot
(In general: Immunoblotting shows a protein as a band on a membrane.)

Sequences of proteins named here, by UniProt entry; tags and fusion partners are left off.
UniProt Q86WV6: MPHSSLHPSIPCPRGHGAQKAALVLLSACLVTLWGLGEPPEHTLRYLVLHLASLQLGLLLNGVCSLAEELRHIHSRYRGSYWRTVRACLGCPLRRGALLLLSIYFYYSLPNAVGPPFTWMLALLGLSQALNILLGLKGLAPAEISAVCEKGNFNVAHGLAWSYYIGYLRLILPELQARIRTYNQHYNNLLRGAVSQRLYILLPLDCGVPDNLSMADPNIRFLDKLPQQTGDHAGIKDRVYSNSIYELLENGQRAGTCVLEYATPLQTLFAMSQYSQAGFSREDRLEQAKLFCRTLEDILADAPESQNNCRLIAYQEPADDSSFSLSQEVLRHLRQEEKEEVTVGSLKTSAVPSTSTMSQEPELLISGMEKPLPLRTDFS
UniProt Q8N884: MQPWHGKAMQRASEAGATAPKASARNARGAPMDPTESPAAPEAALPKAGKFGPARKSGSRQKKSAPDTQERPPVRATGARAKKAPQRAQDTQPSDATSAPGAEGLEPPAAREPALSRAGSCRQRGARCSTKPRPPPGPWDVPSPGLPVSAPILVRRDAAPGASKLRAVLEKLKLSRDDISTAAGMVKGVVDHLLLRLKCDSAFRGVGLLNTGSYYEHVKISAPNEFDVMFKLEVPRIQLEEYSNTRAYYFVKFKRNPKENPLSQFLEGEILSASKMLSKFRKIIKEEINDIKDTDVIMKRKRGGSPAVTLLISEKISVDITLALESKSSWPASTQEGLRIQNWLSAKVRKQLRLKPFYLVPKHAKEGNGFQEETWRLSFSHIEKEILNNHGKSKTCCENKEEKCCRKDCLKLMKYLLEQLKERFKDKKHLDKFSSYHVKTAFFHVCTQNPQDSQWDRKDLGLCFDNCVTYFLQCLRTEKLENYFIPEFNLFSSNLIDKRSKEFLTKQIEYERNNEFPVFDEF

In test [1] the target is T1, Flag-DDOST, full length (human) (UniProt P39656).
T1 sequence: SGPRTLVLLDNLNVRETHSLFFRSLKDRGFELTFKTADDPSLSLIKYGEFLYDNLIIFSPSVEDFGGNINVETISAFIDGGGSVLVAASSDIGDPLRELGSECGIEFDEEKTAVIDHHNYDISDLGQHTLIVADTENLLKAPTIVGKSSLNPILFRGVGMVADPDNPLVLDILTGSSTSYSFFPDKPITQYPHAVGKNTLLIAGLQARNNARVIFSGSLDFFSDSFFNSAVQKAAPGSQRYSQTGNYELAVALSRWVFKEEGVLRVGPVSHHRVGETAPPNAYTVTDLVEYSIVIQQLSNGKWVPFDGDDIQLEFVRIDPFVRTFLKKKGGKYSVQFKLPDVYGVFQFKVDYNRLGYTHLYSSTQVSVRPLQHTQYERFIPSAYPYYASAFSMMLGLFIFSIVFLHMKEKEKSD

Test [2] has as its target Flag-MITA (human) (UniProt Q86WV6).
The target of test [3] is T1, Flag-DDOST, full length (human). This is another data set of the same source.

Read-outs that look alike come from different tables or passages of the source. No constants are given. Whether binding was seen depends on the method and setting. Binding seen in cells or lysates may run through a third protein. Some entries that bind do so weakly or less than the wild type. Sequences can lack the tags named with a protein.

Drawing on article PMC9710844, this text covers binding for four molecules.

With “HA-MITA, full length (from UniProt Q86WV6 1-379)”, the binding result in test [1] is listed as “binds”.

“HA-cGAS (cyclic GMP-AMP synthase) (from UniProt Q8N884 1-522)”: the binding result in test [1] is “no binding”.

B1: HA-STT3A (STT3 oligosaccharyltransferase complex catalytic subunit A) (protein, UniProt P46977 1-705)
chain: MTKFGFLRLSYEKQDTLLKLLILSMAAVLSFSTRLFAVLRFESVIHEFDPYFNYRTTRFLAEEGFYKFHNWFDDRAWYPLGRIIGGTIYPGLMITSAAIYHVLHFFHITIDIRNVCVFLAPLFSSFTTIVTYHLTKELKDAGAGLLAAAMIAVVPGYISRSVAGSYDNEGIAIFCMLLTYYMWIKAVKTGSICWAAKCALAYFYMVSSWGGYVFLINLIPLHVLVLMLTGRFSHRIYVAYCTVYCLGTILSMQISFVGFQPVLSSEHMAAFGVFGLCQIHAFVDYLRSKLNPQQFEVLFRSVISLVGFVLLTVGALLMLTGKISPWTGRFYSLLDPSYAKNNIPIIASVSEHQPTTWSSYYFDLQLLVFMFPVGLYYCFSNLSDARIFIIMYGVTSMYFSAVMVRLMLVLAPVMCILSGIGVSQVLSTYMKNLDISRPDKKSKKQQDSTYPIKNEVASGMILVMAFFLITYTFHSTWVTSEAYSSPSIVLSARGGDGSRIIFDDFREAYYWLRHNTPEDAKVMSWWDYGYQITAMANRTILVDNNTWNNTHISRVGQAMASTEEKAYEIMRELDVSYVLVIFGGLTGYSSDDINKFLWMVRIGGSTDTGKHIKENDYYTPTGEFRVDREGSPVLLNCLMYKMCYYRFGQVYTEAKRPPGFDRVRNAEIGNKDFELDVLEEAYTTEHWLVRIYKVKDLDNRGLSRT
With B1, the binding result in test [2] is recorded as “binds”.

B2: HA-TBK1 (protein, UniProt Q9UHD2 1-729)
chain: MQSTSNHLWLLSDILGQGATANVFRGRHKKTGDLFAIKVFNNISFLRPVDVQMREFEVLKKLNHKNIVKLFAIEEETTTRHKVLIMEFCPCGSLYTVLEEPSNAYGLPESEFLIVLRDVVGGMNHLRENGIVHRDIKPGNIMRVIGEDGQSVYKLTDFGAARELEDDEQFVSLYGTEEYLHPDMYERAVLRKDHQKKYGATVDLWSIGVTFYHAATGSLPFRPFEGPRRNKEVMYKIITGKPSGAISGVQKAENGPIDWSGDMPVSCSLSRGLQVLLTPVLANILEADQEKCWGFDQFFAETSDILHRMVIHVFSLQQMTAHKIYIHSYNTATIFHELVYKQTKIISSNQELIYEGRRLVLEPGRLAQHFPKTTEENPIFVVSREPLNTIGLIYEKISLPKVHPRYDLDGDASMAKAITGVVCYACRIASTLLLYQELMRKGIRWLIELIKDDYNETVHKKTEVVITLDFCIRNIEKTVKVYEKLMKINLEAAELGEISDIHTKLLRLSSSQGTIETSLQDIDSRLSPGGSLADAWAHQEGTHPKDRNVEKLQVLLNCMTEIYYQFKKDKAERRLAYNEEQIHKFDKQKLYYHATKAMTHFTDECVKKYEAFLNKSEEWIRKMLHLRKQLLSLTNQCFDIEEEVSKYQEYTNELQETLPQKMFTASSGIKHTMTPIYPSSNTLVEMTLGMKKLKEEMEGVVKELAENNHILERFGSLTMDGGLRNVDCL
As for B2, the binding entry in test [3] is on record as “no binding”.
